Drawing on publication PMC12750793, this text covers binding for 4 substances.

Protein sequences, listed by entry. Tags and fused reporters are not part of them. Lines headed by an entry give the natural chain unless they say otherwise; changes in a name come on top.
UniProt O43524: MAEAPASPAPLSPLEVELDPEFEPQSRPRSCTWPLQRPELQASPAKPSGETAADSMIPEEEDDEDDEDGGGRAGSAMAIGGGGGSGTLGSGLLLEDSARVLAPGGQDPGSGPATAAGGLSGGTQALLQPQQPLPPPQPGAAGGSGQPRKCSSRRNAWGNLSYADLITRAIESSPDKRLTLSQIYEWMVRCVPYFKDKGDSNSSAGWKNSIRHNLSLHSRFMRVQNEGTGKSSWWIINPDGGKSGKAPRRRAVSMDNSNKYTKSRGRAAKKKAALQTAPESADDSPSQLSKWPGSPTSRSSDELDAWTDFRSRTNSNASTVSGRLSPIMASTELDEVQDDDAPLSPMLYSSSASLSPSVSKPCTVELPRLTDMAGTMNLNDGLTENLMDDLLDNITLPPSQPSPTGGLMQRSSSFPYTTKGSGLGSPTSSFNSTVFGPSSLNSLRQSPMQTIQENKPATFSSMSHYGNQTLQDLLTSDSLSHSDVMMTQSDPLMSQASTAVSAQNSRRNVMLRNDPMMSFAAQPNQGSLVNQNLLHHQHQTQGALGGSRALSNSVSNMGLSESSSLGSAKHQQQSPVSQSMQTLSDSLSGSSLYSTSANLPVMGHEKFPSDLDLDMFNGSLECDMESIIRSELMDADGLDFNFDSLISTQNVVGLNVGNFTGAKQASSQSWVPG
UniProt P19474: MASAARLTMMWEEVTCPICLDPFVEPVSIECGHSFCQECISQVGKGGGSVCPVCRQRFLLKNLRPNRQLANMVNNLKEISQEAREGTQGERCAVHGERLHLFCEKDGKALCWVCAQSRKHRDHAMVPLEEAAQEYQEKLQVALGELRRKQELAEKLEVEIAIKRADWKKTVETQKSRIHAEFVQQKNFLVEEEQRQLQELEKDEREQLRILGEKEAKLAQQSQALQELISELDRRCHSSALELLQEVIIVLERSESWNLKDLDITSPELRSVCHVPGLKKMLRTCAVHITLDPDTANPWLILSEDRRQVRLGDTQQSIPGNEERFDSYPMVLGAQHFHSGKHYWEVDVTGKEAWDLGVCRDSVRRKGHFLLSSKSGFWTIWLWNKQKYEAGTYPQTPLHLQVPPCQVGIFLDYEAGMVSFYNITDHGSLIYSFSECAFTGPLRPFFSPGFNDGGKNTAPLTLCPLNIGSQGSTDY

Assay [1] addresses G9a (UniProt Q96KQ7). In words: co-IP; G9a and FoxO3a overexpressed in 293T cells.
For assay [2], the target named is T1, G9a protein 680-896 amino acid (aa) (UniProt Q96KQ7).
T1 sequence: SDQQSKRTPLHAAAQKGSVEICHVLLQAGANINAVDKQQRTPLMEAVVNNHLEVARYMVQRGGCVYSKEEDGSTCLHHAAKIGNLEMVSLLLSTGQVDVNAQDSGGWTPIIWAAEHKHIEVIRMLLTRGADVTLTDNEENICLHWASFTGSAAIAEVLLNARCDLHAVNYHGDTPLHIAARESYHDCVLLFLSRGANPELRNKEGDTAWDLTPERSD
In words: co-IP; truncated mutants of G9a and FoxO3a expressed in cells; cell line not stated.

Assay [3] has as its target G9a (UniProt Q96KQ7). Described as above.
In assay [4] the target is G9a (UniProt Q96KQ7). In words: pull-down; GST pull-down; which protein carried GST and the conditions not stated.
Assay [5] addresses FoxO3a (UniProt O43524). The assay can be described thus: co-IP; IP screening of multiple TRIM proteins against FoxO3a; cells not given.

These are yes or no findings as the source states them, for the method shown. In cells and extracts the contact can be indirect. Some entries that bind do so weakly or less than the wild type.

“HA-FoxO3a, full-length (from UniProt O43524 1-673)”: the binding result in assay [1] and in assay [2] was “binds” each time.

For the substance “FoxO3a protein 150-300aa (from UniProt O43524 150-300) (domain or fragment)”, the binding entry in assay [3] was “binds”.

As to FoxO3a (from UniProt O43524 1-673), the binding result in assay [4] is recorded as “binds”.

For the substance “TRIM21 (from UniProt P19474 1-475) (enzyme)”, the binding entry in assay [5] was “binds”.
